In the supplement of paper PMC10849652:
The list shows a part of the results.

Sequences of proteins named here, by UniProt entry; tags and fusion partners are left off. A change or cut given only in a name is not applied to a line headed by its entry.
UniProt P63146, whole entry, looked up: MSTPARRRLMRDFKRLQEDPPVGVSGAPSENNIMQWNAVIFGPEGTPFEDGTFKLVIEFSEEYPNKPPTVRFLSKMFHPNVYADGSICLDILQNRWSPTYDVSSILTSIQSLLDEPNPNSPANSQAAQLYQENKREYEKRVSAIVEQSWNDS
UniProt Q9H4B7, whole entry, looked up: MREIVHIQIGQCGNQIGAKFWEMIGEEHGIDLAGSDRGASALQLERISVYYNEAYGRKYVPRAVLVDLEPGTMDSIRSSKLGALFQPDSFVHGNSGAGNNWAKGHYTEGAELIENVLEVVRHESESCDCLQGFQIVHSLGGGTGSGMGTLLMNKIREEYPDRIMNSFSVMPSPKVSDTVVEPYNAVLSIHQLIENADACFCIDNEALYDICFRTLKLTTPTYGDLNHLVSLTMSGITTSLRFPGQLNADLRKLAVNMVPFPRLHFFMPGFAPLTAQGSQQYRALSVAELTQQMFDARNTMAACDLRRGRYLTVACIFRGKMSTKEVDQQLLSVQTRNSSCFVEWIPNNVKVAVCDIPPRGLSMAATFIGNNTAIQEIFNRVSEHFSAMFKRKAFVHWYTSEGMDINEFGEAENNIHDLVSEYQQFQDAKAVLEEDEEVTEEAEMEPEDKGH
UniProt Q9NUQ3: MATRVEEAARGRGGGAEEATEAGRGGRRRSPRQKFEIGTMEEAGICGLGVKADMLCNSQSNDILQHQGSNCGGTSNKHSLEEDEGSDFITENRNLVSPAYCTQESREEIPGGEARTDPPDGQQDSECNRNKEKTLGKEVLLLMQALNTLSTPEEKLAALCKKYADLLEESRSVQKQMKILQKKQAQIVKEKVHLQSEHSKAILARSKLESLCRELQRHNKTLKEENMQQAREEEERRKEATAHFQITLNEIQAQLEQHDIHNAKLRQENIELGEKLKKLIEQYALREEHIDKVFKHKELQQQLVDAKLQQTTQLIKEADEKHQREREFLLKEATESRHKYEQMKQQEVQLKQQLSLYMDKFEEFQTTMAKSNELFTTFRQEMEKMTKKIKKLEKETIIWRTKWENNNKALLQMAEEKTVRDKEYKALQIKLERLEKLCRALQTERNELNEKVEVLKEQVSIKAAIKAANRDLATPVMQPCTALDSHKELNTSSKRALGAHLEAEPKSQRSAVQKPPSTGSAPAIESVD
UniProt Q14157: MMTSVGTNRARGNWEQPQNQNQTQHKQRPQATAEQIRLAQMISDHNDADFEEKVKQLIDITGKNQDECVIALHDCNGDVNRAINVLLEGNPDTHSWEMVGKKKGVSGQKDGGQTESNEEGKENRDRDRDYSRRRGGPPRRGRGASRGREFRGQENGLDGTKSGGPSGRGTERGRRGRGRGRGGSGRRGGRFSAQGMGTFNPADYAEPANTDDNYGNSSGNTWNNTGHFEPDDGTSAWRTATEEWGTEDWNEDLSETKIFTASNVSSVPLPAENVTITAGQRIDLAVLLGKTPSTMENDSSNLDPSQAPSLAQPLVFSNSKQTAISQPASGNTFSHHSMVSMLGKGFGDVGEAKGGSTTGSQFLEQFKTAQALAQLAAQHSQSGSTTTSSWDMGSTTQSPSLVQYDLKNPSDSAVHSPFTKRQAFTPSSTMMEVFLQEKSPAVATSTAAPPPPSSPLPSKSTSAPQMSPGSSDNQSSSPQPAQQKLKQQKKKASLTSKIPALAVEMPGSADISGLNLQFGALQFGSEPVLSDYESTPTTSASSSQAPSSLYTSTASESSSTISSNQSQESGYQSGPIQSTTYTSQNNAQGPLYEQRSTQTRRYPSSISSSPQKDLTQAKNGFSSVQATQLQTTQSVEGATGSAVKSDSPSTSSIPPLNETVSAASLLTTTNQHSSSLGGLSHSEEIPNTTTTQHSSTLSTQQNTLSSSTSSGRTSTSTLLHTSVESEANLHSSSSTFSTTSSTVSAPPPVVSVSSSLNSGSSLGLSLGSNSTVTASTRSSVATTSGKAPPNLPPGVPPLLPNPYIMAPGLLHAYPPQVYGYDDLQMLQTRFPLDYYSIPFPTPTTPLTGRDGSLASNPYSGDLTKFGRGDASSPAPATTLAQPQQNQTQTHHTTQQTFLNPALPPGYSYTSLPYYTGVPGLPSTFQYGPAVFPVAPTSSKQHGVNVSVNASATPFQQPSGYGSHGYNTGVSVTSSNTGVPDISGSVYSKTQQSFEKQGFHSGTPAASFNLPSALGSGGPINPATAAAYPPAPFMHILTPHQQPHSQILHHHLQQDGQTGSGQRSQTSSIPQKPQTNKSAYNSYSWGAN
UniProt Q9Y385: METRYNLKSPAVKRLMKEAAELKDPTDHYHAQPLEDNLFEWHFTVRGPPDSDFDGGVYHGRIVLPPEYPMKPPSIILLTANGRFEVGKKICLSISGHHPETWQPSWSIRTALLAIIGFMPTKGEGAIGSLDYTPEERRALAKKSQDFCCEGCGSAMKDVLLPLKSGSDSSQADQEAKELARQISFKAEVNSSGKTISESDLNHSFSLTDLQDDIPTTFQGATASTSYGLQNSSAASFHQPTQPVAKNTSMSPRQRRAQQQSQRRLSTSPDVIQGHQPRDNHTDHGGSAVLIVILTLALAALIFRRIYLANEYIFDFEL
UniProt Q5JXB2: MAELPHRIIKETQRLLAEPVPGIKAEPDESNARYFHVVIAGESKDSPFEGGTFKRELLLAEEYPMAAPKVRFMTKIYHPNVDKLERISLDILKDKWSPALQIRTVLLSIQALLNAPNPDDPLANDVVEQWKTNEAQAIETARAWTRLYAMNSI
UniProt Q6PID6, whole entry, looked up: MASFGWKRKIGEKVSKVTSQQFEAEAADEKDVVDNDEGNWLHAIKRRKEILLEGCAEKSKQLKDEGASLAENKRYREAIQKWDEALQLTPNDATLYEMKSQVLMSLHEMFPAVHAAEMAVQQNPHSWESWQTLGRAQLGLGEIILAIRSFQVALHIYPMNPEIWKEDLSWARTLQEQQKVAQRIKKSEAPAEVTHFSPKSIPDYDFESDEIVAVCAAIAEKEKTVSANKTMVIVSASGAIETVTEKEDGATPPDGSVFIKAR
UniProt O95881: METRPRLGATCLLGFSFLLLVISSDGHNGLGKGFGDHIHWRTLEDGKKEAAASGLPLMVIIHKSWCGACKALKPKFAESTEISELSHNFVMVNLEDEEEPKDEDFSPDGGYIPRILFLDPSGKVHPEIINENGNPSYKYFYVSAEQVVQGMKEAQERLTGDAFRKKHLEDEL
UniProt Q99598: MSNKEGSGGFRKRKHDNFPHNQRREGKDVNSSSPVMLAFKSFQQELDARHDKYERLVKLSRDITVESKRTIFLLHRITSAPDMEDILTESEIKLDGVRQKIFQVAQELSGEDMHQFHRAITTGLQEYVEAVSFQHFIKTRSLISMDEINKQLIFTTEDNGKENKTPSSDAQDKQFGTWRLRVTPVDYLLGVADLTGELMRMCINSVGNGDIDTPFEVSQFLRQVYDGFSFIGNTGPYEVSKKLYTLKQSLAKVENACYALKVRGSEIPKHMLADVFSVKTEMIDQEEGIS
UniProt P51965: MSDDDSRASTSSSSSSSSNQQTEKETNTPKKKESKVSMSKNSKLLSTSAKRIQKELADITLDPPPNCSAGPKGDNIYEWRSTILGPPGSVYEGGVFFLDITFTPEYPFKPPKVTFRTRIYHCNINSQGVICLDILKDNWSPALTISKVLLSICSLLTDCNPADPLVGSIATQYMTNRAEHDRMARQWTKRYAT
UniProt Q6PKC3: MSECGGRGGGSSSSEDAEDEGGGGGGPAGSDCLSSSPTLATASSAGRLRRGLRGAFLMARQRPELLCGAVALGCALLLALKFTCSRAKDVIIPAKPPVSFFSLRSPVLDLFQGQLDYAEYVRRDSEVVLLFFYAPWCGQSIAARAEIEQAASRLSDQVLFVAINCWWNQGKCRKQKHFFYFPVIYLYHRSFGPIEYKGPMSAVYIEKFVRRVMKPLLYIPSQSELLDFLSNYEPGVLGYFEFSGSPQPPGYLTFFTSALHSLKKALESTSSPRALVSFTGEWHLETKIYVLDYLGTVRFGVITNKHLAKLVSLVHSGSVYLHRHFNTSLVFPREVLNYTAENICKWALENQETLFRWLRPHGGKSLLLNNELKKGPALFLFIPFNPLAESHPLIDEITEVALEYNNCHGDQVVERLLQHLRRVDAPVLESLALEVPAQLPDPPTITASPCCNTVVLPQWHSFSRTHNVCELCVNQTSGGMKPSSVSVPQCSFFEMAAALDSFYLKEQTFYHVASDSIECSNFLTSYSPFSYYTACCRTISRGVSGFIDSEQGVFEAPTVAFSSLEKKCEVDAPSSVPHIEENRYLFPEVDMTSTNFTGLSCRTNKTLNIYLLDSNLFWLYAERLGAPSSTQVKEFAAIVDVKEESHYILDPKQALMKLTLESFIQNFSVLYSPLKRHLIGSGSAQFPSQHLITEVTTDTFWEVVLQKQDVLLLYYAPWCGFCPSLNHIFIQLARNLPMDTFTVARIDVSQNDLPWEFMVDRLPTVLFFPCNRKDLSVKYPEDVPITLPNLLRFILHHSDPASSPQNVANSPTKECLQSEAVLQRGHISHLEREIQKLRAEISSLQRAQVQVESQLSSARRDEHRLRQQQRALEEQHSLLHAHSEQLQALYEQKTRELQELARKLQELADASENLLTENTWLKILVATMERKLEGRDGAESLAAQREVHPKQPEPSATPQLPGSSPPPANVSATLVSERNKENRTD
UniProt Q9H832: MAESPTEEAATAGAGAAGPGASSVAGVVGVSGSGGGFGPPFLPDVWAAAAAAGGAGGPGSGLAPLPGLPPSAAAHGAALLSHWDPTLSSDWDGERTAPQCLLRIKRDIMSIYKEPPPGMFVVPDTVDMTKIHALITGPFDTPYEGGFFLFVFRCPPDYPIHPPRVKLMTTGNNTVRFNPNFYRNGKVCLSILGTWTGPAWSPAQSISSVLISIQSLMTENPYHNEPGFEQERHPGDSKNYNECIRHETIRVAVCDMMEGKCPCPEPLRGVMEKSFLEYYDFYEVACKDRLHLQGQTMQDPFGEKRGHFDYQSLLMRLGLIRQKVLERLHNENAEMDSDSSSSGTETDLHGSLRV
UniProt Q15819: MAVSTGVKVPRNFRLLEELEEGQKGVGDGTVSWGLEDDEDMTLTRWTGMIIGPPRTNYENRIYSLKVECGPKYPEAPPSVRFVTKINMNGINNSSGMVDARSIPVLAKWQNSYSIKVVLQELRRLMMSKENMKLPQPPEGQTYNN
UniProt Q6NXR4: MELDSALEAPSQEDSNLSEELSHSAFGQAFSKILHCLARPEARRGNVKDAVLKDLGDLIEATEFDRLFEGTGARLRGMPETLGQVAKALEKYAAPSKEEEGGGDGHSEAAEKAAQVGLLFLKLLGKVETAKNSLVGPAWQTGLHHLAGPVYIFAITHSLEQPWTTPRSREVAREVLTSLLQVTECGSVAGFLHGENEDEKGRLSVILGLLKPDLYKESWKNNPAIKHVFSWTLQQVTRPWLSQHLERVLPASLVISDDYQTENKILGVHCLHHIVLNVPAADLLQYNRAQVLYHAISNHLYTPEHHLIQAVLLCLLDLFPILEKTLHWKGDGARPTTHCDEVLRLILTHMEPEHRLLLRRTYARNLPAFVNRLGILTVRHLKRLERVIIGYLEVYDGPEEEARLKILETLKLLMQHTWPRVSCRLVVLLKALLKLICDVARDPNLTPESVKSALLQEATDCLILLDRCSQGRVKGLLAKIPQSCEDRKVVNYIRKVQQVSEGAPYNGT
UniProt Q9NX01: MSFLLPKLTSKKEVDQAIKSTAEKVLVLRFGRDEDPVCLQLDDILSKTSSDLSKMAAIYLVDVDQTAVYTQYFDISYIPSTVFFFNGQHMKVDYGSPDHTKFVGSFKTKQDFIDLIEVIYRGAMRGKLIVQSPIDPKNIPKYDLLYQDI
UniProt Q12999: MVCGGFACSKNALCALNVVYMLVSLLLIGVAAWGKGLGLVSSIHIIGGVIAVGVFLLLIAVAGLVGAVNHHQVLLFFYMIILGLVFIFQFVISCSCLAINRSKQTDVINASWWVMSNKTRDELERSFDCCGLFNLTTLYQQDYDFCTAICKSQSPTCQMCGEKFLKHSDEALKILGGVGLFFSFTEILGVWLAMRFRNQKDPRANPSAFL
UniProt Q7Z6J9: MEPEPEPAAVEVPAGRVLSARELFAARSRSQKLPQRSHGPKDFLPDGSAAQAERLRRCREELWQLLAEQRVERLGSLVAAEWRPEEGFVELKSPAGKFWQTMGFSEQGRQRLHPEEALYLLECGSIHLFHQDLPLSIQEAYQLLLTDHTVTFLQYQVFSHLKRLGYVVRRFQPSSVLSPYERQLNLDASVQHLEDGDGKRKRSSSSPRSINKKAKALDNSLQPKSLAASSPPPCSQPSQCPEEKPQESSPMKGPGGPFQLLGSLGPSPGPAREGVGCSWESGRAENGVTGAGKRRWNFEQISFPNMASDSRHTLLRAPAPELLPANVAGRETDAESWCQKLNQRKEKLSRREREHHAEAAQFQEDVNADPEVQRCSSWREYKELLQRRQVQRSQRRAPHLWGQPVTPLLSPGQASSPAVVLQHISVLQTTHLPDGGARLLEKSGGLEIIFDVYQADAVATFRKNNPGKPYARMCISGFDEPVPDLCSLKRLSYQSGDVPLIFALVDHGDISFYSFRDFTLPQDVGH

Key:
Test in all cases: log2 fold change, soluble protein after heating vs DMSO (PISA); higher = thermal stabilisation; K562 cells, 10 uM, 30 min; active = over 0.2 and 3.5 SD of the protein, either way, in both replicates (recomputed)
[1] = compound: NC(=O)Nc1cc(-c2cccc(F)c2)sc1C(=O)N[C@H]1CCCNC1
In short: (§1)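 K562 cells at 2×10^6 cells/mL were given 10 μM compound for 30 min. Aliquots then went through 3 min of heating across 48°C-58°C, were pooled, and were extracted in PBS with 0.5% NP-40 at 4°C, and the supernatant after 21,000xg for 90 min was quantified by TMTpro 16plex LC-MS/MS with channel sums equalised. Thermal stability relative to control samples, from duplicates, is given as log2 fold change.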

[2] = compound: NC(=O)c1cnc(N[C@@H]2CCCC[C@@H]2N)nc1Nc1cccc(-n2nccn2)c1
In short: as §1

[3] = compound: NC1(c2ccc(-c3nc4ccn5c(=O)[nH]nc5c4cc3-c3ccccc3)cc2)CCC1
In short: as §1

[4] = compound: NCC(=O)Nc1ccc(-n2nc(C(F)(F)F)cc2-c2ccc3c(ccc4ccccc43)c2)cc1
In short: as §1

entinostat = compound: Nc1ccccc1NC(=O)c1ccc(CNC(=O)OCc2cccnc2)cc1 [entinostat]
In short: as §1

vorinostat = compound: O=C(CCCCCCC(=O)Nc1ccccc1)NO [vorinostat]
In short: as §1

citarinostat = compound: O=C(CCCCCCNC(=O)c1cnc(N(c2ccccc2)c2ccccc2Cl)nc1)NO [citarinostat]
In short: as §1

silmitasertib = compound: O=C(O)c1ccc2c(c1)nc(Nc1cccc(Cl)c1)c1ccncc12 [silmitasertib]
In short: as §1

[5] = compound: O=C1NC(=O)C(c2cnc3ccccn23)=C1c1cn2c3c(cc(F)cc13)CN(C(=O)N1CCCCC1)CC2
In short: as §1

[6] = compound: c1cc(OCCN2CCCCC2)cc(-c2n[nH]c3ccc(-c4nnc[nH]4)cc23)c1
In short: as §1

Target	log2 fold change [1]	log2 fold change [2]	log2 fold change [3]	log2 fold change [4]	log2 fold change (entinostat)	log2 fold change (vorinostat)	log2 fold change (citarinostat)	log2 fold change (silmitasertib)	log2 fold change [5]	log2 fold change [6]
UBE2O (UniProt Q9C0C9)	inactive: 0.028	inactive: -0.07	inactive: -0.05	inactive: -0.007	inactive: -0.012	inactive: 0.024	inactive: 0.084	inactive: -0.014	inactive: -0.029	inactive: 0.036
UAP1L1 (UniProt Q3KQV9)	inactive: 0.014	inactive: -0.025	inactive: -0.107	inactive: -0.074	inactive: 0.019	inactive: 0.02	inactive: -0.002	inactive: -0.026	inactive: -0.048	inactive: -0.007
UBE2B (UniProt P63146)	inactive: 0.074	inactive: -0.089	inactive: -0.133	inactive: -0.008	inactive: 0.077	inactive: 0.106	inactive: 0.072	inactive: -0.007	inactive: 0.023	inactive: -0.037
TUBB1 (UniProt Q9H4B7)	inactive: 0.005	inactive: 0.092	inactive: -0.007	inactive: 0.089	inactive: -0.015	inactive: 0.03	inactive: 0.008	inactive: -0.102	inactive: -0.011	inactive: -0.037
UBA5 (UniProt Q9GZZ9)	inactive: -0.013	inactive: -0.078	inactive: -0.092	inactive: -0.009	inactive: -0.01	inactive: -0.025	inactive: 0.004	inactive: -0.043	inactive: 0.012	inactive: -0.074
TXLNG (UniProt Q9NUQ3)	inactive: 0.064	inactive: -0.048	inactive: -0.031	inactive: -0.03	inactive: 0.042	inactive: 0.011	inactive: 0.04	inactive: 0.003	inactive: -0.02	inactive: 0.003
UBAP2L isoform 5 (UniProt Q14157)	inactive: 0.017	inactive: -0.004	inactive: -0.013	inactive: 0.001	inactive: -0.016	inactive: -0.016	inactive: 0.013	inactive: -0.007	inactive: -0.029	inactive: 0.023
UBE2J1 (UniProt Q9Y385)	inactive: 0.031	inactive: -0.038	inactive: 0.07	inactive: 0.017	inactive: -0.077	inactive: -0.019	inactive: 0.041	inactive: 0.042	active: -0.375	inactive: -0.09
TUBB4A (UniProt M0QYM7)	inactive: -0.199	inactive: -0.313	inactive: -0.566	inactive: -0.245	inactive: -0.127	inactive: -0.116	inactive: -0.153	inactive: 0.156	inactive: 0.068	inactive: -0.106
TUBB4B (UniProt P68371)	inactive: 0.041	inactive: 0.041	inactive: -0.035	inactive: 0.039	inactive: -0.026	inactive: 0.012	inactive: 0.021	inactive: -0.039	inactive: 0.017	inactive: -0.015
UBE2NL (UniProt Q5JXB2)	inactive: 0.063	inactive: -0.004	inactive: -0.033	inactive: -0.049	inactive: 0.099	inactive: 0	inactive: 0.095	inactive: -0.045	inactive: 0.046	inactive: 0.018
UBA2 (UniProt Q9UBT2)	inactive: -0.006	inactive: -0.048	inactive: -0.039	inactive: -0.053	inactive: 0.03	inactive: 0.004	inactive: 0.036	inactive: 0.078	inactive: -0.047	inactive: 0.014
TWSG1 (UniProt Q9GZX9)	inactive: 0.001	inactive: 0.029	inactive: -0.007	inactive: 0.013	inactive: -0.09	inactive: -0.02	inactive: 0.049	inactive: 0.002	inactive: -0.113	inactive: 0.032
TTC33 (UniProt Q6PID6)	inactive: -0.1	inactive: -0.158	inactive: -0.197	inactive: -0.133	inactive: -0.123	inactive: -0.072	inactive: -0.038	inactive: 0.151	inactive: -0.08	inactive: 0.003
TSSC4 (UniProt Q9Y5U2)	inactive: 0.035	inactive: 0.02	inactive: 0.072	inactive: 0.09	inactive: -0.022	inactive: 0.084	inactive: -0.059	inactive: 0.074	inactive: 0.114	inactive: -0.003
TXNDC12 (UniProt O95881)	inactive: -0.176	inactive: -0.033	inactive: -0.002	inactive: 0.093	inactive: -0.063	inactive: -0.016	inactive: -0.029	inactive: 0.002	inactive: -0.016	inactive: -0.069
TUBA3C (UniProt P0DPH7)	inactive: -0.01	inactive: 0.035	inactive: -0.068	inactive: -0.003	inactive: -0.02	inactive: 0.014	inactive: 0.157	inactive: -0.006	inactive: -0.037	inactive: -0.073
TSNAX (UniProt Q99598)	inactive: -0.007	inactive: 0.015	inactive: 0.017	inactive: 0.02	inactive: -0.035	inactive: -0.002	inactive: 0.005	inactive: -0.001	inactive: -0.052	inactive: -0.008
TUBGCP3 (UniProt Q96CW5)	inactive: 0.03	inactive: -0.029	inactive: -0.042	inactive: 0.107	inactive: 0.078	inactive: -0.079	–	inactive: 0.158	inactive: -0.042	–
UBE2E1 (UniProt P51965)	inactive: 0.033	inactive: -0.046	inactive: 0.317	inactive: -0.213	inactive: 0.11	inactive: -0.028	–	inactive: 0.103	inactive: -0.038	–
UBA6	inactive: -0.048	inactive: -0.065	inactive: -0.14	inactive: -0.047	inactive: 0.05	inactive: 0.011	inactive: 0.052	inactive: -0.004	inactive: -0.046	inactive: -0.004
TXNDC11 (UniProt Q6PKC3)	inactive: -0.083	inactive: 0.075	inactive: -0.067	inactive: 0.11	inactive: -0.018	inactive: -0.031	inactive: 0.051	inactive: -0.002	inactive: 0.112	inactive: -0.003
UBE2Z (UniProt Q9H832)	inactive: 0.003	inactive: -0.028	inactive: -0.062	inactive: -0.01	inactive: -0.006	inactive: 0	inactive: 0.036	inactive: 0.008	inactive: -0.035	inactive: -0.001
UBE2V2 (UniProt Q15819)	inactive: -0.03	inactive: -0.026	inactive: -0.026	inactive: 0.024	inactive: 0	inactive: -0.008	inactive: 0.052	inactive: -0.051	inactive: -0.041	inactive: -0.046
TYW3 (UniProt Q6IPR3)	inactive: 0.008	inactive: 0.05	inactive: 0.073	inactive: 0.082	inactive: -0.023	inactive: 0.01	inactive: -0.002	inactive: -0.079	inactive: -0.06	inactive: -0.087
TTI2 (UniProt Q6NXR4)	inactive: 0.024	inactive: -0.038	inactive: 0.016	inactive: -0.074	inactive: -0.004	–	inactive: -0.035	inactive: -0.047	inactive: 0.059	inactive: -0.023
TXNL4B (UniProt Q9NX01)	inactive: 0.098	inactive: -0.112	inactive: -0.035	active: 0.709	inactive: -0.024	inactive: 0.02	inactive: 0.029	inactive: 0.118	–	inactive: 0.117
TUBB4A (UniProt P04350)	inactive: 0.136	inactive: -0.089	inactive: -0.108	inactive: 0.047	inactive: 0.031	–	inactive: 0.191	inactive: -0.005	inactive: -0.065	inactive: -0.104
TSPAN31 (UniProt Q12999)	inactive: 0.118	inactive: -0.003	inactive: -0.041	–	inactive: -0.009	–	inactive: 0.164	inactive: -0.076	inactive: 0.027	inactive: 0.189
TSEN54 (UniProt Q7Z6J9)	inactive: -0.062	inactive: -0.084	inactive: 0.041	inactive: 0.204	inactive: 0.113	inactive: 0.052	inactive: -0.038	inactive: -0.006	inactive: -0.234	inactive: 0.076

As a short view, some entries already given:
Target	log2 fold change [1]	log2 fold change [2]	log2 fold change [3]	log2 fold change [4]	log2 fold change (entinostat)	log2 fold change (vorinostat)	log2 fold change (citarinostat)	log2 fold change (silmitasertib)	log2 fold change [5]	log2 fold change [6]
TUBGCP3 (UniProt Q96CW5)	inactive: 0.03	inactive: -0.029	inactive: -0.042	inactive: 0.107	inactive: 0.078	inactive: -0.079	–	inactive: 0.158	inactive: -0.042	–
UBE2E1 (UniProt P51965)	inactive: 0.033	inactive: -0.046	inactive: 0.317	inactive: -0.213	inactive: 0.11	inactive: -0.028	–	inactive: 0.103	inactive: -0.038	–
